Experimental data published in paper PMC6043850.
These are yes or no findings as the source states them, for the method shown. In cells and extracts the contact can be indirect. Binding can be weak; no strength is given. Where a sequence is shown, tags or fusion partners need not be part of it.

Protein sequences, listed by entry. Tags and fused reporters are not part of them. Lines headed by an entry give the natural chain unless they say otherwise; changes in a name come on top.
UniProt P55211: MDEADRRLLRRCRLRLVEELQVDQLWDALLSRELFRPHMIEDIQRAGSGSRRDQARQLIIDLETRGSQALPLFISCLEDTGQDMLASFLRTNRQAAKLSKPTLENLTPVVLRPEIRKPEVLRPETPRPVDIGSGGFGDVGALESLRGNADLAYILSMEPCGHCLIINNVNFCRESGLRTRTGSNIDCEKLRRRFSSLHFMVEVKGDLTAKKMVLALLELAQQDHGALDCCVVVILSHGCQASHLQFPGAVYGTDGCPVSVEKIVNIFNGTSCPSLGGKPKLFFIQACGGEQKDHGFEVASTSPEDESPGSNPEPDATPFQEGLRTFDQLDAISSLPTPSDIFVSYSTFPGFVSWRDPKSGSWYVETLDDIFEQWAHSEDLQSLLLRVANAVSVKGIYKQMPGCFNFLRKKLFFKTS

Target: T1, Myc-TRAF2 (UniProt Q12933)
T1 sequence: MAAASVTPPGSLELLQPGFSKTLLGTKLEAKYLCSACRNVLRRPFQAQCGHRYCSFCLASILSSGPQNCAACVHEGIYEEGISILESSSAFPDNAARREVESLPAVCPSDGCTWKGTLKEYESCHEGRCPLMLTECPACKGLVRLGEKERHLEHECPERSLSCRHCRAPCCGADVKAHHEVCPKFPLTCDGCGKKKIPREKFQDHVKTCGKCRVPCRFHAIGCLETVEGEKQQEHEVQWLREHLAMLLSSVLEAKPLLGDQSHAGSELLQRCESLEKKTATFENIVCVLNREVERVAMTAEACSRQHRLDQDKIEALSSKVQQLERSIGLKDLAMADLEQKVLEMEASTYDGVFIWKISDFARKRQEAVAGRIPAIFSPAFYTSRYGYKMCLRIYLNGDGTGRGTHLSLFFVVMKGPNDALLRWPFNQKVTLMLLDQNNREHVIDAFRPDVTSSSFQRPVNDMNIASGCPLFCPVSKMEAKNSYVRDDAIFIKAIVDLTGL
Experiment: co-IP; Myc-TRAF2 expressed in HeLa for 48 h; Myc-Trap IP, immunoblot for endogenous caspases

binding: binds
Substance: caspase-9 (endogenous) (from UniProt P55211)
